The record followed here is US20060239984A1.

Chains of the proteins cited; added tags and fusions are not shown.
UniProt P17676: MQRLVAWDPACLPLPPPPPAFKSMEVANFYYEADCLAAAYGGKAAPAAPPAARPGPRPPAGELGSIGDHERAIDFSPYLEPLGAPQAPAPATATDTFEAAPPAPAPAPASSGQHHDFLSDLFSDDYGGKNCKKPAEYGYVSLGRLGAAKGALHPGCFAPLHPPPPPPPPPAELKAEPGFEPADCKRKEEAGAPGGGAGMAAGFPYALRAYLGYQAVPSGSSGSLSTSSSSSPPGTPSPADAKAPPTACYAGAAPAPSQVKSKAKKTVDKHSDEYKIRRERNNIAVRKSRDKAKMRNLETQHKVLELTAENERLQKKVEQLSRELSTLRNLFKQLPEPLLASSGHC

Assay [1] addresses C/EBPβ (human (endogenous in human HepG2 cells)) (UniProt P17676). In words: co-immunoprecipitation and immunoblot of nuclear extracts of IFNgamma-treated HepG2 cells. Background: Immunoblotting shows a protein as a band on a membrane.
Assay [2] shares this target. The assay is described as follows: EMSA with GAS probe and nuclear extracts of IFNgamma-treated HepG2 cells; complex abolished by anti-C/EBPβ and super shifted by anti-IRF-1.

These are yes or no findings as the source states them, for the method shown. For some assays here: Binding seen in cells or lysates may run through a third protein. Some results given as binding are weak or reduced against the parent protein; the word gives no strength.

B1: IRF-1 (protein, human (endogenous in human HepG2 cells), UniProt P10914 1-325, looked up)
chain: MPITRMRMRPWLEMQINSNQIPGLIWINKEEMIFQIPWKHAAKHGWDINKDACLFRSWAIHTGRYKAGEKEPDPKTWKANFRCAMNSLPDIEEVKDQSRNKGSSAVRVYRMLPPLTKNQRKERKSKSSRDAKSKAKRKSCGDSSPDTFSDGLSSSTLPDDHSSYTVPGYMQDLEVEQALTPALSPCAVSSTLPDWHIPVEVVPDSTSDLYNFQVSPMPSTSEATTDEDEEGKLPEDIMKLLEQSEWQPTNVDGKGYLLNEPGVQPTSVYGDFSCKEEPEIDSPGGDIGLSLQRVFTDLKNMDATWLDSLLTPVRLPSIQAIPCAP
Consider B1, for which the binding entry in assay [1] and in assay [2] was “binds” each time.
